The list does not hold the whole screen: it gathers tests that were run many times, whatever their T/C, doses with no T/C, and many T/C values between a quarter and a half above the control. Further doses and runs are listed elsewhere. T/C: endpoint of the treated group in % of that of the vehicle group. Some entries give survivors of the animals treated and no T/C: the source files T/C as zero there, which appears to mark a toxic dose or a test without result, not a measured value. Some survivor counts are full or nearly so, which does not show that the dose was tolerated: survival well below the control is almost never listed, so the zero probably covers shortened survival too. Survivors were counted at the toxicity check, usually on the fifth day, unless a day is given; later deaths do not show. Schedule codes are those of the source, read here as Q, the interval in days (D) or hours (H), X, the number of doses. Where survival is the endpoint, the PubChem record calls one and a half times the control and up active, and a quarter to a half above the control has no call in these data; cut-offs in other NCI protocols can differ. Brackets with × stand for listed records that agree. Some doses were run more than once; the results are listed from low to high. Some T/C values carry the count of animals alive at the toxicity check (mostly the fifth day); without a count, all were alive then.
Test system: BDF1 mice, P388 leukemia ip, median survival T/C
Test: NCI In Vivo Anticancer Drug Screen. Data for tumor model P388 Leukemia (intraperitoneal) in B6D2F1 (BDF1) mice
Settings: T/C endpoint: median survival time, higher T/C = longer survival
In short: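 Read-out is survival of treated animals expressed relative to the vehicle group, as a T/C ratio.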

[1] = dose: 100.0 mg/kg/injection, schedule: Q04DX003 (ip), vehicle: saline
[2] = dose: 200.0 mg/kg/injection, schedule: Q01DX009 (ip), vehicle: saline with Tween-80
[3] = dose: 100.0 mg/kg/injection, schedule: Q01DX009 (ip), vehicle: saline with Tween-80
[4] = dose: 100.0 mg/kg/injection, schedule: Q04DX003 (ip), vehicle: saline with Tween-80
[5] = dose: 50.0 mg/kg/injection, schedule: Q01DX009 (ip), vehicle: saline with Tween-80
[6] = dose: 150.0 mg/kg/injection, schedule: Q01DX009 (ip), vehicle: saline with Tween-80

CC1CN1c1nc(N2CC2C)nc(N2CC2C)n1 (stereo not given)
survivor count (dose: 12.0 mg/kg/injection, schedule: Q01DX009 (ip), vehicle: saline): 3 of 6
survivor count (dose: 25.0 mg/kg/injection, schedule: Q04DX003 (ip), vehicle: saline): 3 of 6
survivor count (dose: 50.0 mg/kg/injection, schedule: Q04DX003 (ip), vehicle: saline): 0 of 6
survivor count [1]: 0 of 6
survivor count (dose: 200.0 mg/kg/injection, schedule: Q04DX003 (ip), vehicle: saline): 0 of 6
survivor count (dose: 400.0 mg/kg/injection, schedule: Q04DX003 (ip), vehicle: saline): 0 of 6

CC(C)(C)OC(=O)N/N=C1\CC2CCC1C2 (stereo not given)
survivor count (dose: 80.0 mg/kg/injection, schedule: Q01DX009 (ip), vehicle: Klucel (hydroxypropylcellulose) (HPC)): 5 of 6
survivor count (dose: 185.0 mg/kg/injection, schedule: Q04DX003 (ip), vehicle: Klucel (hydroxypropylcellulose) (HPC)): 4 of 6

C=CC12COC(=O)C(=C)C1C(O)C1C(=C)C(=O)OC1C2 (stereo not given)
T/C (dose: 1.88 mg/kg/injection, schedule: Q01DX009 (ip), vehicle: saline + alcohol): 136 % of control
T/C (dose: 7.5 mg/kg/injection, schedule: Q01DX009 (ip), vehicle: saline + alcohol): 127 % of control
survivor count (dose: 30.0 mg/kg/injection, schedule: Q01DX009 (ip), vehicle: saline + alcohol): 0 of 6

O=[N+]([O-])c1ccc(N2CCOCC2)c2c1no[n+]2[O-]
T/C (dose: 16.0 mg/kg/injection, schedule: Q04DX003 (ip), vehicle: saline with Tween-80): 126 % of control [6 of 7 alive]

Cc1cc2nc(Oc3ccccc3)nc(=O)n2o1
survivor count (dose: 400.0 mg/kg/injection, schedule: Q01DX009 (ip), vehicle: saline with Tween-80): 1 of 6

CCCCCCCCSC(=S)N(C)NC(=O)c1ccccn1
survivor count [2]: 3 of 6

COc1cccc2c1C(=O)c1c(O)c3c(c(O)c1C2=O)CC(O)(/C(C)=N/Nc1ccc(Cl)cc1)CC3OC1CC(N)C(O)C(C)O1 (stereo not given)
T/C (dose: 1.47 mg/kg/injection, schedule: Q04DX003 (ip), vehicle: water): 133 % of control
T/C (dose: 2.45 mg/kg/injection, schedule: Q04DX003 (ip), vehicle: water): 148 % of control [7 of 8 alive]

Nc1nc(N)c2cc(Sc3cccc(C(F)(F)F)c3)ccc2n1
T/C [3]: 129 % of control
T/C [2]: 137 % of control

CCCCCCCCC(=O)CCC
survivor count (dose: 100.0 mg/kg/injection, schedule: Q04DX003 (ip), vehicle: Klucel (hydroxypropylcellulose) (HPC)): 6 of 6
survivor count (dose: 200.0 mg/kg/injection, schedule: Q04DX003 (ip), vehicle: Klucel (hydroxypropylcellulose) (HPC)): 6 of 6

CCOC(=O)CNC(=O)N(CC)C12CC3CC(CC(C3)C1)C2
T/C (dose: 200.0 mg/kg/injection, schedule: Q01DX009 (ip), vehicle: Klucel (hydroxypropylcellulose) (HPC)): 136 % of control [5 of 6 alive]

O=C1OC2(CCCCC2)Cc2oc3ccccc3c(=O)c21
survivor count (dose: 100.0 mg/kg/injection, schedule: Q01DX005 (ip), vehicle: Klucel (hydroxypropylcellulose) (HPC)): 6 of 6

CC#CC(=O)SCCNC(=O)CC
survivor count [4]: 5 of 6
survivor count (dose: 200.0 mg/kg/injection, schedule: Q04DX003 (ip), vehicle: saline with Tween-80): 1 of 6

CCCCCSc1nc(N)nc2nc[nH]c12
survivor count (dose: 400.0 mg/kg/injection, schedule: Q01DX009 (ip), vehicle: Klucel (hydroxypropylcellulose) (HPC)): 1 of 6

CCOC(=N)c1cn(C2OC(CO)C(O)C2O)c2ncnc(N)c12 (stereo not given)
survivor count (dose: 1.0 mg/kg/injection, schedule: Q01DX009 (ip), vehicle: saline with Tween-80): 6 of 6
survivor count (dose: 2.0 mg/kg/injection, schedule: Q01DX009 (ip), vehicle: saline with Tween-80): 6 of 6
survivor count (dose: 4.0 mg/kg/injection, schedule: Q01DX009 (ip), vehicle: saline with Tween-80): 6 of 6
T/C (dose: 4.0 mg/kg/injection, schedule: Q04DX003 (ip), vehicle: saline with Tween-80): 140 % of control
T/C (dose: 12.0 micrograms/kg/injection, schedule: Q01DX009 (ip), vehicle: saline): 132 % of control
T/C (dose: 18.0 micrograms/kg/injection, schedule: Q01DX009 (ip), vehicle: saline): 135 % of control (2×)
T/C (dose: 30.0 micrograms/kg/injection, schedule: Q01DX009 (ip), vehicle: saline with Tween-80): 129 % of control
T/C (dose: 44.0 micrograms/kg/injection, schedule: Q01DX009 (ip), vehicle: saline): 128 % of control
T/C (dose: 60.0 micrograms/kg/injection, schedule: Q01DX009 (ip), vehicle: saline with Tween-80): 129 % of control
T/C (dose: 150.0 micrograms/kg/injection, schedule: Q01DX009 (ip), vehicle: saline): 149 % of control

NC(N)=NC(N)=Nc1ccc(-c2ccc(N=C(N)N=C(N)N)cc2)cc1
T/C (dose: 6.25 mg/kg/injection, schedule: Q01DX009 (ip), vehicle: saline with Tween-80): 125 % of control

Cc1n(CC(C)C)c2c([n+]1CC(=O)c1ccc([N+](=O)[O-])cc1)C(=O)c1ccccc1C2=O
survivor count (dose: 10.0 mg/kg/injection, schedule: Q01DX010 (ip), vehicle: saline): 1 of 6

CC(C)(C)c1ccc2c(cc[n+]3ccccc23)c1
T/C (dose: 6.25 mg/kg/injection, schedule: Q01DX005 (ip), vehicle: saline with Tween-80): 131 % of control
survivor count (dose: 12.5 mg/kg/injection, schedule: Q01DX005 (ip), vehicle: saline with Tween-80): 0 of 5

CCS/C(N)=N\N
survivor count (dose: 50.0 mg/kg/injection, schedule: Q01DX009 (ip), vehicle: saline): 3 of 5
survivor count [1]: 3 of 6

CN(C)c1nc(NC(=O)NC(=O)c2c(F)cccc2F)nc(N(C)C)n1
survivor count [5]: 6 of 6
survivor count [3]: 6 of 6

O=c1[nH]c(Cl)ncc1F
T/C (dose: 75.0 mg/kg/injection, schedule: Q01DX009 (ip), vehicle: saline with Tween-80): 133 % of control
T/C [6]: 133 % of control
survivor count (dose: 300.0 mg/kg/injection, schedule: Q01DX009 (ip), vehicle: saline with Tween-80): 4 of 6

CS(=O)(=O)CCN(N=O)C(=N)N[N+](=O)[O-]
T/C (dose: 12.0 mg/kg/injection, schedule: Q04DX003 (ip), vehicle: saline with Tween-80): 136 % of control
T/C (dose: 66.0 mg/kg/injection, schedule: Q04DX003 (ip), vehicle: saline with Tween-80): 137 % of control
T/C [4]: 145 % of control

CN(C)[C@@H]1C(=O)C(C(=O)NCN2CCN(C(=N)N=C(N)N)CC2)=C(O)[C@@]2(O)C(=O)C3=C(O)c4c(O)cccc4[C@@](C)(O)[C@H]3C[C@@H]12
T/C (dose: 0.5 mg/kg/injection, schedule: Q04DX003 (ip), vehicle: saline): 132 % of control

COc1cccc2c1C(=O)c1c(O)c3c(c(O)c1C2=O)C[C@@](O)(C(C)O)C[C@@H]3OC1CC(N(Cc2ccccc2)Cc2ccccc2)C(O)C(C)O1 (stereo not given in full)
T/C (dose: 10.0 mg/kg/injection, schedule: Q01DX009 (ip), vehicle: water): 130 % of control

CC(=O)Nc1ccc([I+]c2ccc([N+](=O)[O-])cc2)cc1
T/C (dose: 35.0 mg/kg/injection, schedule: Q01DX009 (ip), vehicle: saline with Tween-80): 125 % of control
T/C (dose: 50.0 mg/kg/injection, schedule: Q01DX009 (ip), vehicle: Klucel (hydroxypropylcellulose) (HPC)): 127 % of control
T/C [5]: 125 % of control
T/C [6]: 133 % of control

O=C(CN1CCOCC1)Nc1nc(-c2ccc(Cl)cc2)cs1
survivor count (dose: 200.0 mg/kg/injection, schedule: Q01DX005 (ip), vehicle: saline with Tween-80): 5 of 5

CCCCN(CCCC)CCC(O)c1cc(-c2ccc(Cl)c(Cl)c2)nc2c(Cl)cc(Cl)cc12 (stereo not given)
survivor count [2]: 5 of 6

Nc1nc(C=O)c(Cc2ccc(Br)cc2)c(=O)[nH]1
T/C [3]: 125 and 134 % of control
T/C [6]: 132 % of control

CCN(c1ccccc1)c1ccc(C=O)cc1
survivor count (dose: 400.0 mg/kg/injection, schedule: Q04DX003 (ip), vehicle: Klucel (hydroxypropylcellulose) (HPC)): 6 of 6

Source: PubChem BioAssay AID328 (DTP/NCI, 2004)
